From PMC9348664
No constants are given. Whether binding was seen depends on the method and setting. For some assays here: Binding seen in cells or lysates may run through a third protein. Some results given as binding are weak or reduced against the parent protein; the word gives no strength.

Chains of the proteins cited; added tags and fusions are not shown.
UniProt Q16877: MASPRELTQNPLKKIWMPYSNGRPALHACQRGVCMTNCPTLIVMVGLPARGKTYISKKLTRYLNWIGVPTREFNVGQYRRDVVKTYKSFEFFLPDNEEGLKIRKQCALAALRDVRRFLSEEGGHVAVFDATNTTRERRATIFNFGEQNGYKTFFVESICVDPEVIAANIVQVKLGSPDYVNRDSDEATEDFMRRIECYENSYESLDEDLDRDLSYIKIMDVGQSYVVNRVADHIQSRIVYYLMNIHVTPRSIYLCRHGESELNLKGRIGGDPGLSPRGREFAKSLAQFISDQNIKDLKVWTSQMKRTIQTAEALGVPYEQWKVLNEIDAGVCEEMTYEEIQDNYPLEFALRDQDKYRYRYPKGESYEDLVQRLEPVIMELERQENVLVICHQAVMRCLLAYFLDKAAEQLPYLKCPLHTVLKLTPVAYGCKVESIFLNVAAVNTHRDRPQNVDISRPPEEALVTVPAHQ
UniProt O60725: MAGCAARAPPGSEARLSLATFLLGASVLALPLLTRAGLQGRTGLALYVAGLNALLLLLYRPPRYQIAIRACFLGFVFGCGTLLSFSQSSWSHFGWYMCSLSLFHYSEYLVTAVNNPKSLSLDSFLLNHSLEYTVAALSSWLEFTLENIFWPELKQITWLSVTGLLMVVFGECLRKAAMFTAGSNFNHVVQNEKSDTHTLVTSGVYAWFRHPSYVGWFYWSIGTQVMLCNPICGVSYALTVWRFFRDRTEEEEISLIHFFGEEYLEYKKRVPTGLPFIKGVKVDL

Tests used:
[1] = molecular target: FLAG-tagged human PFKFB4 (human) (UniProt Q16877); assay: co-IP; FLAG-M2 magnetic beads on lysate of transfected MeWo cells (100 mM NaCl, 0.5% NP-40, 20 mM Tris-HCl pH 7.5, 5 mM MgCl2), overnight at 4°C; Western blotting; for ICMT and RAS with or without PFKFB4 depletion by siRNA
ICMT-Cub-GAL4 (human) = ICMT-Cub-GAL4 (human) (UniProt O60725); assay: two-hybrid; MaMTH (mammalian membrane split-ubiquitin two-hybrid) in MaMTH-modified HEK293T cells; bait fused to Cub-GAL4, prey fused to Nub; GAL4-driven luciferase normalised to Renilla

Row | Substance | binding [1] | binding (ICMT-Cub-GAL4 (human))
1 | ICMT tagged with V5 (from UniProt O60725 1-284) (enzyme) | binds | 
2 | human PFKFB4 as MaMTH fusions (PFKFB4-Cub-GAL4 bait; PFKFB4-Nub prey) (from UniProt Q16877 1-469) (enzyme) |  | binds
